Results taken from the supplement of paper PMC8728848.
Some of the results follow.

Legend:
Assay in all cases: glycan array binding signal (z-score within array); higher = stronger binding
Details in all cases: glycan notation: IUPAC condensed, linker removed
[1] = target: Gal(b1-4)GlcNAc(b1-2)Man(a1-6)[Man(a1-3)]Man(b1-4)GlcNAc(b1-4)GlcNAc
In short: (§1)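 Arrays were curated from the Consortium for Functional Glycomics database, 3228 in total, and kept only where the protein sequence was available. Binding is expressed as a within-array Z-score. This score was averaged across arrays of the same protein sequence at different concentrations or buffers and across linkers, and negative values can be read as non-binding.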

[2] = target: Gal(b1-4)GlcNAc(b1-2)[Gal(b1-4)GlcNAc(b1-4)]Man(a1-3)[Gal(b1-4)GlcNAc(b1-2)Man(a1-6)]Man(b1-4)GlcNAc(b1-4)GlcNAc
In short: as §1

[3] = target: Gal(b1-4)GlcNAc(b1-2)[Gal(b1-4)GlcNAc(b1-4)]Man(a1-3)[Gal(b1-4)GlcNAc(b1-2)[Gal(b1-4)GlcNAc(b1-6)]Man(a1-6)]Man(b1-4)GlcNAc(b1-4)GlcNAc
In short: as §1

[4] = target: Gal(b1-4)GlcNAc(b1-2)[Gal(b1-4)GlcNAc(b1-4)]Man(a1-3)[GlcNAc(b1-4)][Gal(b1-4)GlcNAc(b1-2)Man(a1-6)]Man(b1-4)GlcNAc(b1-4)GlcNAc
In short: as §1

[5] = target: Gal(b1-4)GlcNAc(b1-2)[Gal(b1-4)GlcNAc(b1-4)]Man(a1-3)[GlcNAc(b1-4)][Gal(b1-4)GlcNAc(b1-2)[Gal(b1-4)GlcNAc(b1-6)]Man(a1-6)]Man(b1-4)GlcNAc(b1-4)GlcNAc
In short: as §1

[6] = target: Gal(b1-4)GlcNAc(b1-2)[Gal(b1-4)GlcNAc(b1-6)]Man(a1-6)[Gal(b1-4)GlcNAc(b1-2)Man(a1-3)]Man(b1-4)GlcNAc(b1-4)GlcNAc
In short: as §1

[7] = target: Gal(b1-4)GlcNAc(b1-2)[Gal(b1-4)GlcNAc(b1-6)]Man(a1-6)[Gal(b1-4)GlcNAc(b1-2)Man(a1-3)]Man(b1-4)GlcNAc(b1-4)[Fuc(a1-6)]GlcNAc
In short: as §1

[8] = target: Gal(b1-4)GlcNAc(b1-2)[Gal(b1-4)GlcNAc(b1-6)]Man(a1-6)[GlcNAc(b1-4)][Gal(b1-4)GlcNAc(b1-2)Man(a1-3)]Man(b1-4)GlcNAc(b1-4)GlcNAc
In short: as §1

[9] = target: Gal(b1-4)GlcNAc(b1-2)[Gal(b1-4)GlcNAc(b1-6)]Man(a1-6)[GlcNAc(b1-4)][Gal(b1-4)GlcNAc(b1-2)[Gal(b1-4)GlcNAc(b1-4)]Man(a1-3)]Man(b1-4)GlcNAc(b1-4)[Fuc(a1-6)]GlcNAc
In short: as §1

[10] = target: Gal(b1-4)GlcNAc(b1-3)Gal(b1-3)GalNAc
In short: as §1

[11] = target: Gal(b1-4)GlcNAc(b1-3)Gal(b1-3)GlcNAc
In short: as §1

[12] = target: Gal(b1-4)GlcNAc(b1-3)Gal(b1-4)Glc
In short: as §1

[13] = target: Gal(b1-4)GlcNAc(b1-3)Gal(b1-4)GlcNAc
In short: as §1

[14] = target: Gal(b1-4)GlcNAc(b1-3)Gal(b1-4)GlcNAc(b1-2)Man(a1-3)[Gal(b1-4)GlcNAc(b1-3)Gal(b1-4)GlcNAc(b1-2)Man(a1-6)]Man(b1-4)GlcNAc(b1-4)GlcNAc
In short: as §1

[15] = target: Gal(b1-4)GlcNAc(b1-3)Gal(b1-4)GlcNAc(b1-2)Man(a1-3)[Gal(b1-4)GlcNAc(b1-3)Gal(b1-4)GlcNAc(b1-2)Man(a1-6)]Man(b1-4)GlcNAc(b1-4)[Fuc(a1-6)]GlcNAc
In short: as §1

[16] = target: Gal(b1-4)GlcNAc(b1-3)Gal(b1-4)GlcNAc(b1-2)[Gal(b1-4)GlcNAc(b1-3)Gal(b1-4)GlcNAc(b1-6)]Man(a1-6)[Gal(b1-4)GlcNAc(b1-3)Gal(b1-4)GlcNAc(b1-2)Man(a1-3)]Man(b1-4)GlcNAc(b1-4)GlcNAc
In short: as §1

[17] = target: Gal(b1-4)GlcNAc(b1-3)Gal(b1-4)GlcNAc(b1-2)[Gal(b1-4)GlcNAc(b1-3)Gal(b1-4)GlcNAc(b1-6)]Man(a1-6)[Gal(b1-4)GlcNAc(b1-3)Gal(b1-4)GlcNAc(b1-2)Man(a1-3)]Man(b1-4)GlcNAc(b1-4)[Fuc(a1-6)]GlcNAc
In short: as §1

[18] = target: Gal(b1-4)GlcNAc(b1-3)Gal(b1-4)GlcNAc(b1-3)Gal(b1-4)GlcNAc
In short: as §1

[19] = target: Gal(b1-4)GlcNAc(b1-3)Gal(b1-4)GlcNAc(b1-3)Gal(b1-4)GlcNAc(b1-2)Man(a1-3)[Gal(b1-4)GlcNAc(b1-3)Gal(b1-4)GlcNAc(b1-3)Gal(b1-4)GlcNAc(b1-2)Man(a1-6)]Man(b1-4)GlcNAc(b1-4)GlcNAc
In short: as §1

[20] = target: Gal(b1-4)GlcNAc(b1-3)Gal(b1-4)GlcNAc(b1-3)Gal(b1-4)GlcNAc(b1-2)Man(a1-3)[Gal(b1-4)GlcNAc(b1-3)Gal(b1-4)GlcNAc(b1-3)Gal(b1-4)GlcNAc(b1-2)Man(a1-6)]Man(b1-4)GlcNAc(b1-4)[Fuc(a1-6)]GlcNAc
In short: as §1

[21] = target: Gal(b1-4)GlcNAc(b1-3)Gal(b1-4)GlcNAc(b1-3)Gal(b1-4)GlcNAc(b1-2)[Gal(b1-4)GlcNAc(b1-3)Gal(b1-4)GlcNAc(b1-3)Gal(b1-4)GlcNAc(b1-6)]Man(a1-6)[Gal(b1-4)GlcNAc(b1-3)Gal(b1-4)GlcNAc(b1-3)Gal(b1-4)GlcNAc(b1-2)Man(a1-3)]Man(b1-4)GlcNAc(b1-4)[Fuc(a1-6)]GlcNAc
In short: as §1

[22] = target: Gal(b1-4)GlcNAc(b1-3)Gal(b1-4)GlcNAc(b1-3)Gal(b1-4)GlcNAc(b1-3)Gal(b1-4)GlcNAc(b1-2)Man(a1-3)[Gal(b1-4)GlcNAc(b1-3)Gal(b1-4)GlcNAc(b1-3)Gal(b1-4)GlcNAc(b1-3)Gal(b1-4)GlcNAc(b1-2)Man(a1-6)]Man(b1-4)GlcNAc(b1-4)GlcNAc
In short: as §1

B1: SP15308F-bth-333-19-333 (Bacteroides thetaiotaomicron) (protein)
chain: SCNNEWESEQYVQMVSFKAPVNAQGVTPIYIRYKPEGKVTYQLPLIVSGSTMNSKDLNVHVGLDLDTLDVLNVEHFGSRKELFFKPLENKYYEFPETVQIPAGECTSLLPIDFALKDLDQVDKWVLPLAIQSNDPSHNYQANPRKFYRRAMLRISPFNDYSGQYSATAYKVYFKGNEKEAIVPEYHTSYVIDDKTIFFYAGLIDIDRLDRKYYKIKFEFTEEKIDLQTRKLKISSDNEDINLVVKGQPSYTVEEEMDATRPYLKHIYVTINNLEYEFTDYTSVPGYPLEYVVKGSLTMERKINTQIPDEDQAIEW
glycan array binding signal (z-score) [1]: -0.531
glycan array binding signal (z-score) [2]: 0.402
glycan array binding signal (z-score) [3]: -0.113
glycan array binding signal (z-score) [4]: 0.22
glycan array binding signal (z-score) [5]: 0.006
glycan array binding signal (z-score) [6]: -0.431
glycan array binding signal (z-score) [7]: -0.313
glycan array binding signal (z-score) [8]: -1.21
glycan array binding signal (z-score) [9]: 0.062
glycan array binding signal (z-score) [10]: 0.095
glycan array binding signal (z-score) [11]: -0.026
glycan array binding signal (z-score) [12]: 0.117
glycan array binding signal (z-score) [13]: -0.506
glycan array binding signal (z-score) [14]: 1.11
glycan array binding signal (z-score) [15]: -0.157
glycan array binding signal (z-score) [16]: -0.769
glycan array binding signal (z-score) [17]: 1.31
glycan array binding signal (z-score) [18]: -0.415
glycan array binding signal (z-score) [19]: 0.392
glycan array binding signal (z-score) [20]: 1.45
glycan array binding signal (z-score) [21]: 0.279
glycan array binding signal (z-score) [22]: 0.503
